# In all, about 31,000 sequences went through this assay and about 1,400 (4.5%) were called active.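 The calls were made as follows: active = median seed-adjusted z-score above 1 or below -1; inactive = the rest.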 The list shows a part of the results.
# Assay: Novel Modifiers of Survival Motor Neuron (SMN) Protein: Gene Identification via Genome-wide siRNA Screen;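 also: luminescence tracks full-length SMN protein made from the SMN2 reporter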
# Details: HEK293T SMN2-luciferase reporter, siRNA knockdown, 72 h; actives lie on both sides
# Procedure, shortened: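 siRNA screen, 10418 genes ×3 siRNAs; 1 pmol/well, lipid reverse transfection into HEK293T SMN2-luc reporter line. 72 h, 37 °C, 5% CO2; ONE-Glo readout. Data: neg-ctrl normalized, log10, MAD; hit = MAD >1.0 or < -1.0.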
row,Sequence,median seed-adjusted z-score
1,CGUUCGUAUUUAUAUUAAATT against HOXA3,inactive: 0.315
2,UCCGCAAACUCAACCCUUUTT against EHD2,inactive: 0.0989
3,AGCUGGUUCCCGUUUUCCATT against HRK,inactive: 0.217
4,AGACGUAUCUUGACAUCUUTT against CENTB1,inactive: -0.239
5,CUGUUCCCGUAGACAAAGATT against SRP68,inactive: 0.721
6,GCUCAUUCAUCAGAGGGAATT against DZIP1L,inactive: 0.203
7,GUGUGAAGGCUGAAGAAGATT against RALB,inactive: -0.534
8,GGGUAUUGAUCAGUCCAUUTT against CETP,inactive: 0
9,GGGCAAUUUCAGAAACGCATT against CATSPER1,inactive: 0.655
10,GCUCGUCGAGGUUACUACATT against PPIL1,inactive: 0.166
11,GCCCUGAUCCCUACGAGAATT against CACNA1H,inactive: -0.147
12,CAUUCGGUAUUUUAUUCUATT against SNRPD1,active: -2.97
13,GCAUCGGAUUAAACAGCUUTT against PRICKLE1,inactive: -0.486
14,CUAUCAAAGCUUCCACUUUTT against NMUR2,inactive: 0.529
15,GGGUCAUCCGAGAAAAGAATT against ADAMTS17,inactive: 0.257
16,GCAUGAUAGGUGGGAUAAATT against SGK269,inactive: -0.171
17,GCAUCUGCGAUGUGAGGAATT against RYBP,inactive: 0.831
18,UCUUCCCUCCGACCACUUATT against CA13,inactive: -0.212
19,GCAGUGCGUUCAGUGCAAATT against FHL2,inactive: 0.475
20,CAAGGGUCUUUCAGAAGUUTT against FKBP9L,inactive: 0.666
21,GAAUGCGAUUCACACCUUUTT against CAT,inactive: 0
22,GACUGGACCCGGACAUUAATT against ADAMTS15,inactive: 0.765

row,Sequence,median seed-adjusted z-score
1,CAAUUAAGUUGGAUCCUUUTT against WARS2,inactive: 0.21
2,GGACGUACUUAUAAUCCUATT against MAK,inactive: 0.22
3,ACGUGUCCUGGAUCAGGAATT against GZMM,inactive: -0.17
4,GCAUCUACUGCAAGGAAGATT against LHX2,inactive: 0.464
5,GCUUGAACCAGAUCCGGAATT against BMP2K,inactive: -0.51
6,GGAGGUUCAGUUCCCGUAATT against OVCH1,inactive: 0.0211
7,CAGGCAAACCGCUACAUCATT against EN1,inactive: 0.761
8,GGAUUCCAAUCUUAGCUUUTT against RLN1,inactive: 0.0637
9,AGCUUUACAUGAACACGCATT against KCNN4,inactive: 0.00864
10,GGAAGACCUUUACUCUUUATT against ZNF540,inactive: -0.439
11,CGGUCAUGCUGAUCACCUUTT against GPR119,inactive: -0.382
12,GGAUCAUCUCAGAAUAGAATT against CENPC1,inactive: 0
13,CCAGCUUCUUAAUAGACAATT against SERPINA7,inactive: 0.0925
14,GCUCAACACUCAUCAAACATT against ZNF774,inactive: -0.0834
15,CGUUAUUGUUAGCAACACUTT against ZNF280A,inactive: -0.207
16,GAACGUGCAUUAUAUCCCATT against MSL3,inactive: 0.423
17,AGAUGGACGAGGUCCUGUATT against TXNL4A,inactive: -0.42
18,GAAUGGAAGAUUUCACCUUTT against SNAPC3,active: -1.72
19,CCAUCGCACUGUACAGCUATT against BEST2,inactive: 0.415
20,GCUUUAACUUCUCUGCCUATT against GLRA1,inactive: 0
21,GAAAAAGGGUCACCAGAAATT against TSG101,active: 1.48
22,CAAUCUGAAUCUGCCCAGATT against HLA-DQB1,inactive: 0.454

row,Sequence,median seed-adjusted z-score
1,CUCUCAUAAGGAUCCGAGATT against FREM2,inactive: 0.143
2,CUAUUUCCCUGCCUUCGAATT against GSTA3,inactive: 0.334
3,GAACAAGGUUGAUUUUCGATT against ABCC11,inactive: 0.322
4,CCCAGUAACUUGUCACCCATT against BSN,inactive: 0.116
5,UGAUCUUUUUAUACACAAUTT against PYCARD,inactive: 0.117
6,GCUAUUGAGUUUGCCCAAATT against ADHFE1,inactive: 0.418
7,GGGAGUGAGUUUUCCGGGATT against PAX5,inactive: 0.285
8,CCACGGCUGCAACAUCUUUTT against PDE2A,inactive: -0.2
9,UCAGAAACCUGGGACAUAATT against SLC25A29,inactive: 0.642
10,GGUCUGGAGAAGGUGCAUATT against ANGPTL4,active: 1.37
11,CAUUGUCUGUAUCUAUAUATT against MFSD2,inactive: -0.325
12,GAUCAGAAUUAGGUAUAGATT against ZHX1,inactive: -0.566
13,ACCUUUUCCUUGAGACUCATT against YBX2,inactive: 0.362
14,GGCUUCCAGUGUAUCGACUTT against TNFRSF18,inactive: 0.154
15,GCUGGAGUCUAUUCCUGGATT against TYMP,inactive: -0.249
16,CCAACAUAGUGGACCGGAUTT against MYF5,inactive: -0.786
17,AGAGUGUGCUUAUUGCCUATT against TSHB,inactive: -0.247
18,AGACCCUCAUUGACCAGUATT against ACOT8,inactive: 0.0643
19,UCUCAGCUCCUAAAGCACATT against CST6,inactive: -0.237
20,UGUCUGUACUCAUUGCAAATT against LPXN,inactive: -0.065
21,CCUUACUAAUCAUAGGAAATT against ZNF254,inactive: 0.088
22,GGCCUUUUCCGCUACAAGATT against DUSP2,inactive: 0.576

# Copied from the results shown (24 entries):
row,Sequence,median seed-adjusted z-score
17,GCAUCUGCGAUGUGAGGAATT against RYBP,inactive: 0.831
18,UCUUCCCUCCGACCACUUATT against CA13,inactive: -0.212
19,GCAGUGCGUUCAGUGCAAATT against FHL2,inactive: 0.475
20,CAAGGGUCUUUCAGAAGUUTT against FKBP9L,inactive: 0.666
21,GAAUGCGAUUCACACCUUUTT against CAT,inactive: 0
22,GACUGGACCCGGACAUUAATT against ADAMTS15,inactive: 0.765
1,CAAUUAAGUUGGAUCCUUUTT against WARS2,inactive: 0.21
2,GGACGUACUUAUAAUCCUATT against MAK,inactive: 0.22
3,ACGUGUCCUGGAUCAGGAATT against GZMM,inactive: -0.17
4,GCAUCUACUGCAAGGAAGATT against LHX2,inactive: 0.464
5,GCUUGAACCAGAUCCGGAATT against BMP2K,inactive: -0.51
6,GGAGGUUCAGUUCCCGUAATT against OVCH1,inactive: 0.0211
7,CAGGCAAACCGCUACAUCATT against EN1,inactive: 0.761
8,GGAUUCCAAUCUUAGCUUUTT against RLN1,inactive: 0.0637
9,AGCUUUACAUGAACACGCATT against KCNN4,inactive: 0.00864
10,GGAAGACCUUUACUCUUUATT against ZNF540,inactive: -0.439
11,CGGUCAUGCUGAUCACCUUTT against GPR119,inactive: -0.382
12,GGAUCAUCUCAGAAUAGAATT against CENPC1,inactive: 0
13,CCAGCUUCUUAAUAGACAATT against SERPINA7,inactive: 0.0925
14,GCUCAACACUCAUCAAACATT against ZNF774,inactive: -0.0834
15,CGUUAUUGUUAGCAACACUTT against ZNF280A,inactive: -0.207
16,GAACGUGCAUUAUAUCCCATT against MSL3,inactive: 0.423
17,AGAUGGACGAGGUCCUGUATT against TXNL4A,inactive: -0.42
18,GAAUGGAAGAUUUCACCUUTT against SNAPC3,active: -1.72

# More entries.

row,Sequence,median seed-adjusted z-score
1,CAGCAAUGCCUGUGAGAAATT against PDK2,inactive: -0.481
2,GAUUCUUUAGAGUCACUUATT against RFK,inactive: -0.00532
3,GACCUAACCACUAUAGUUATT against IL7R,inactive: 0
4,AGACCAUUGAGACCCGGAATT against PRPH,inactive: 0
5,GGAUAAUCGACACUCUGGATT against MATN3,inactive: 0.0972
6,AUGACGCACUACUCAAGAATT against GH1,inactive: -0.394
7,GGACGGAAAACAGUCUUAATT against OAS2,inactive: 0.0758
8,CGGGAUUCAGACUAACAUATT against SLC44A5,inactive: 0.179
9,GGAUUUGUUCUGAUCCGUUTT against NSD1,inactive: -0.372
10,CAUCAACGAAGGAAAUAUATT against CD27,inactive: 0.5
11,CAAUGGACAUAAACGUGAUTT against BMPER,inactive: -0.684
12,CCAUGUUAUGAUUCGCUGUTT against PTPN11,inactive: 0.186
13,CACCCUUACCUCAACCAAATT against tAKR,inactive: -0.356
14,CCACCUACUGAAUCUCGAATT against BCL6B,inactive: 0
15,CGAGAGUGCGAGAAAAAUATT against SFXN1,inactive: -0.746
16,CUACCAGGGUGGAAAAUUUTT against UBE2F,inactive: 0
17,GAUCCUGAGUGACAUGCGATT against KRT19,inactive: 0.0661
18,GGAUCGAUAUUUUGUCGAATT against BAZ1A,inactive: 0.0896
19,GAGGUAAAACGAACCAUUATT against SLAMF1,inactive: -0.104
20,GUAUCUCAACAUCAAACUATT against LSM2,active: -1.48
21,CCCUCACCCUUACAUCGCATT against SPHK2,inactive: 0
22,CAGAGACUAGGAAACGUAATT against USP51,inactive: -1

row,Sequence,median seed-adjusted z-score
1,GGAAAAAGAUUCAAGAAAATT against TRIM43,inactive: -0.4
2,CUACGUCUCGGGUCCAGAUTT against HOXA11,inactive: -0.222
3,UAACUGAUUUACCUACUUATT against DLX4,inactive: -0.0473
4,CAACUAGUGGAGAAGAUCATT against FAM63B,inactive: 0.111
5,GGACGACUGCAGCAAGUUUTT against ATP2A3,inactive: -0.28
6,CAUCCUUCAUAGACGGCUATT against PTPRE,inactive: 0.619
7,GCAACCUUCUAACUACGGUTT against HNRNPA2B1,active: 1.33
8,CAUGGAAGAUCUGACCAUATT against MEOX2,active: 1.36
9,UGACUAAAGAGGAACAGAUTT against PTH1R,inactive: -0.521
10,GCAAGAACGUGAUCGGGUUTT against TAGLN2,inactive: 0.432
11,CAGGGAAGCUAGACACUGATT against MMP10,inactive: 0.902
12,GGAGACCCGCUGAACAAUATT against ERBB2,inactive: 0.158
13,CGAACCUCGUCUUCACCUATT against FOSL2,inactive: -0.372
14,CACUUGCACAGAUACCCUUTT against COLEC12,active: -1.04
15,CCGUAGCAAUAGUAGGUGUTT against UBA5,inactive: -0.105
16,GCCUCUACAUCAUAAACCUTT against HTR3C,inactive: -0.221
17,GCGGACAUGUGGGAAUGUATT against KIAA1804,inactive: -0.211
18,GGAGUACAAUAAGAGGCGATT against TAOK3,inactive: -0.594
19,CCGUCUAUGCAAAGAUGUATT against TOMM40L,inactive: 0.12
20,CAUGGACUACUGGAUCUUUTT against PPYR1,inactive: 0.589
